PubChem BioAssay AID504774 – Drosophila RNAi Screening Center – 2011

- Screen: 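Genes required for cells to withstand methyl methanesulphonate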 (primary screen)
- Cell system: Drosophila Kc167 cells
- Reagents: long dsRNA against Drosophila genes, about 0.25 µg dsRNA per well
- Timing: about 6 days: 3 days knock-down, then 3 days with or without MMS
- Challenge: methyl methanesulphonate 0.004% (w/v) for 3 days after knock-down
- Measured: 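ATP-dependent luminescence as a measure of live cells in MMS-exposed wells, quantile normalised within each plate, with replicate values also given as a mean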
- Direction: mean viability with MMS: higher = more surviving cells after MMS
The deposit covers about 23,000 reagents; this is a random part of those that have a named target and a result. 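Values are quantile-normalised luminescence on an arbitrary scale; higher means more cells surviving MMS.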 Names joined by + are all predicted targets of the reagent. Further read-outs or replicates are left out here.

LManIV (Lysosomal alpha-mannosidase IV) [SID104183014] | mean viability with MMS = 3.55e6
CG17272 [SID104195003] | mean viability with MMS = 3.52e6
CG17141 [SID104194970] | mean viability with MMS = 3.63e6
CG42816 + CG42815 [SID104191022] | mean viability with MMS = 3.69e6
betaTub85D (beta-Tubulin at 85D) [SID104196702] | mean viability with MMS = 3.43e6
AttD (Attacin-D) [SID104196064] | mean viability with MMS = 1.99e6
dor (deep orange) [SID104198557] | mean viability with MMS = 3.51e6
CG6330 [SID104195814] | mean viability with MMS = 3.56e6
CG3156 [SID104198295] | mean viability with MMS = 3.46e6
Dad [SID104196434] | mean viability with MMS = 3.77e6
Vha26 (Vacuolar H[+]-ATPase 26kD subunit) [SID104192163] | mean viability with MMS = 3.47e6
Frq2 (Frequenin 2) [SID104200037] | mean viability with MMS = 3.50e6
CG5773 [SID104186747] | mean viability with MMS = 3.60e6
Npl4 (Nuclear protein localization 4) [SID104195407] | mean viability with MMS = 3.56e6
Npl4 (Nuclear protein localization 4) [SID104195408] | mean viability with MMS = 3.44e6
daed (daedalus) [SID104180091] | mean viability with MMS = 3.32e6
Dh44 (Diuretic hormone 44) [SID104192539] | mean viability with MMS = 3.53e6
Dh44 (Diuretic hormone 44) [SID104196201] | mean viability with MMS = 3.64e6
Gprk2 (G protein-coupled receptor kinase 2) [SID104196474] | mean viability with MMS = 3.06e6
Gprk2 (G protein-coupled receptor kinase 2) [SID104202693] | mean viability with MMS = 3.68e6
CG3226 [SID104198088] | mean viability with MMS = 3.60e6
Ctf4 (Chromosome transmission fidelity 4) [SID104186172] | mean viability with MMS = 3.72e6
dpp (decapentaplegic) [SID104179910] | mean viability with MMS = 3.63e6
dpp (decapentaplegic) [SID104179913] | mean viability with MMS = 3.63e6
dpp (decapentaplegic) [SID104180605] | mean viability with MMS = 3.50e6
CG42399 [SID104180114] | mean viability with MMS = 3.48e6
CG42399 [SID104180453] | mean viability with MMS = 3.48e6
SiaT (Sialyltransferase) [SID104184286] | mean viability with MMS = 3.50e6
dpr3 (defective proboscis extension response 3) [SID104180187] | mean viability with MMS = 3.45e6
dpr3 (defective proboscis extension response 3) [SID104180188] | mean viability with MMS = 3.51e6
dpr3 (defective proboscis extension response 3) [SID104201140] | mean viability with MMS = 2.39e6
ND-20 (NADH dehydrogenase (ubiquinone) 20 kDa subunit) [SID104199956] | mean viability with MMS = 3.33e6
l(2)k10201 (lethal (2) k10201) [SID104186231] | mean viability with MMS = 3.62e6
l(2)k10201 (lethal (2) k10201) [SID104187432] | mean viability with MMS = 3.54e6
CG15601 [SID104199462] | mean viability with MMS = 3.61e6

3 entries from above, arranged by “mean viability with MMS”, high to low.
SiaT (Sialyltransferase) [SID104184286] | mean viability with MMS = 3.50e6
CG42399 [SID104180114] | mean viability with MMS = 3.48e6
CG42399 [SID104180453] | mean viability with MMS = 3.48e6
